Values from PubChem BioAssay AID504808 (Drosophila RNAi Screening Center, 2011).
The deposit covers about 21,000 reagents; below is a random part of those that have a named target and a result. Of all reagents, 18 (0.084%) were called active. 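Raw counts without plate normalisation, one of two replicates; the ratio scores behind the calls were not deposited.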 Entries without a mark were called inactive. Reagents against one gene are numbered here. The record does not give: the amount of reagent, the time to read-out.

Aim: 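Fly genes required to hold E2F transcription in check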 (primary screen)
Cells: Drosophila S2 cells
Reagents: long dsRNA against Drosophila genes
Read-out: 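Dual luciferase plate measurements; E2F-specific signal taken as firefly over Renilla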
Direction: E2F firefly: higher = more E2F reporter activity; Renilla normaliser: higher = more normaliser reporter signal
Active means: 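Called active if the normalised E2F reporter went up by over 50%; the cutoff is arbitrary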

Nup35 (Nucleoporin 35kDa) → E2F firefly, rep 1 = 1.34e5; Renilla normaliser, rep 1 = 4786
Zip88E (Zinc/iron regulated transporter-related protein 88E) → E2F firefly, rep 1 = 1.17e5; Renilla normaliser, rep 1 = 5687
eater → E2F firefly, rep 1 = 1.23e5; Renilla normaliser, rep 1 = 6927
Snap25 (Synaptosomal-associated protein 25kDa) #1 → E2F firefly, rep 1 = 1.34e5; Renilla normaliser, rep 1 = 5818
Snap25 (Synaptosomal-associated protein 25kDa) #2 → E2F firefly, rep 1 = 76595; Renilla normaliser, rep 1 = 4937
NT1 (Neurotrophin 1) → E2F firefly, rep 1 = 83206; Renilla normaliser, rep 1 = 3486
Gr22f (Gustatory receptor 22f) → E2F firefly, rep 1 = 1.39e5; Renilla normaliser, rep 1 = 6823
unc-45 (uncoordinated 45) → E2F firefly, rep 1 = 1.40e5; Renilla normaliser, rep 1 = 7295
Pa1 (PTIP associated 1) → E2F firefly, rep 1 = 1.13e5; Renilla normaliser, rep 1 = 5628
CG2336 → E2F firefly, rep 1 = 1.45e5; Renilla normaliser, rep 1 = 7261
CG13062 → E2F firefly, rep 1 = 1.67e5; Renilla normaliser, rep 1 = 9360
CG17742 (retired record) → E2F firefly, rep 1 = 72438; Renilla normaliser, rep 1 = 3177
CG42249 #1 → E2F firefly, rep 1 = 1.12e5; Renilla normaliser, rep 1 = 5642
CG42249 #2 → E2F firefly, rep 1 = 35873; Renilla normaliser, rep 1 = 2851
CG7382 → E2F firefly, rep 1 = 82945; Renilla normaliser, rep 1 = 3574
NaPi-III (Na[+]-dependent inorganic phosphate cotransporter type III) #1 → E2F firefly, rep 1 = 81896; Renilla normaliser, rep 1 = 3508
NaPi-III (Na[+]-dependent inorganic phosphate cotransporter type III) #2 → E2F firefly, rep 1 = 79832; Renilla normaliser, rep 1 = 4624
BicC (Bicaudal C) → E2F firefly, rep 1 = 1.21e5; Renilla normaliser, rep 1 = 4374
bsf (bicoid stability factor) → E2F firefly, rep 1 = 83027; Renilla normaliser, rep 1 = 3500
Cap-D2 (CAP-D2 condensin subunit) → E2F firefly, rep 1 = 1753; Renilla normaliser, rep 1 = 892
CG31751 #1 → E2F firefly, rep 1 = 73355; Renilla normaliser, rep 1 = 3465
CG31751 #2 → E2F firefly, rep 1 = 86741; Renilla normaliser, rep 1 = 4097
CG31805 → E2F firefly, rep 1 = 1.41e5; Renilla normaliser, rep 1 = 5588
CG9458 → E2F firefly, rep 1 = 1.28e5; Renilla normaliser, rep 1 = 5900
CG42553 → E2F firefly, rep 1 = 1.00e5; Renilla normaliser, rep 1 = 4115
Blos3 → E2F firefly, rep 1 = 50968; Renilla normaliser, rep 1 = 3330
Bacc (Bacchus) → E2F firefly, rep 1 = 1.62e5; Renilla normaliser, rep 1 = 6237
Qsox2 (Quiescin sulfhydryl oxidase 2) → E2F firefly, rep 1 = 71876; Renilla normaliser, rep 1 = 3889

Reprinted from the entries so far (3 entries):
Snap25 (Synaptosomal-associated protein 25kDa) #1 → E2F firefly, rep 1 = 1.34e5; Renilla normaliser, rep 1 = 5818
Snap25 (Synaptosomal-associated protein 25kDa) #2 → E2F firefly, rep 1 = 76595; Renilla normaliser, rep 1 = 4937
NT1 (Neurotrophin 1) → E2F firefly, rep 1 = 83206; Renilla normaliser, rep 1 = 3486
